Measured values as given in patent publication US20180015070A1, “METHODS AND COMPOSITIONS FOR UPREGULATING ENDOGENOUS ANTIOXIDANT SYSTEMS” (USANA Health Sciences, Inc., priority 2016, published 2018).
At least one compound was matched to its structure with a doubt left.

Tested on: C. elegans strain CB5586 worms
Experiment: phenotypic lifespan screening with C. elegans
Type: in vivo
Experimental: Dilutions of the test formulations were applied to individual populations of C. elegans and the lifespan of each population was monitored. Any changes in the lifespan of an individual population compared to a control population were recorded and correlated to the respective test formulation (N356 or N357) and the respective dilution (0.1 mg/ml, 1 mg/ml, and 10 mg/ml).
The N356 and N357 formulations were each prepared as individual 100 mg/ml stock solutions in dimethyl sulfoxide (DMSO). Serial dilutions of each stock solution were then prepared at 0.1 mg/ml, 1 mg/ml, and 10 mg/ml in DMSO. Control solutions of DMSO only were also prepared. Synchronous aged adult populations of C. elegans strain CB5586 worms were prepared. […]
Each worm population was then monitored by fluorescent imaging to determine the number of living and dead worms as a function of time. The fluorescent imaging was analyzed by software that recognized and counted worms based on their fluorescent intensity compared to background fluorescence. […] The ability to distinguish between living and dead worms allowed the number of living worms and cumulative number of dead worms to be monitored against time. Worm populations from a selection of fluorescent images were manually checked to verify that the software had accurately counted the number of living and dead worms. […]

## C[C@@H]1O[C@@H](OC[C@H]2O[C@@H](Oc3c(-c4ccc(O)c(O)c4)oc4cc(O)cc(O)c4c3=O)[C@H](O)[C@@H](O)[C@@H]2O)[C@H](O)[C@H](O)[C@H]1O [N346, Rutin hydrate]
10 mg/ml, compared to DMSO control
  Statistically Significant Result: No statistical difference
Over the concentrations tested
  anti-ageing activity / effect on chronological lifespan: significant negative effect on chronological lifespan
